Measured values reported in paper doi:10.1101/2025.09.30.25337017.
Results are given in words; binding and its absence hold for the method and conditions named. In cells and extracts the contact can be indirect. A result given as binding can be weak or reduced; the word gives no strength.

Target: T1, HSPA13 (UniProt P48723)
T1 sequence: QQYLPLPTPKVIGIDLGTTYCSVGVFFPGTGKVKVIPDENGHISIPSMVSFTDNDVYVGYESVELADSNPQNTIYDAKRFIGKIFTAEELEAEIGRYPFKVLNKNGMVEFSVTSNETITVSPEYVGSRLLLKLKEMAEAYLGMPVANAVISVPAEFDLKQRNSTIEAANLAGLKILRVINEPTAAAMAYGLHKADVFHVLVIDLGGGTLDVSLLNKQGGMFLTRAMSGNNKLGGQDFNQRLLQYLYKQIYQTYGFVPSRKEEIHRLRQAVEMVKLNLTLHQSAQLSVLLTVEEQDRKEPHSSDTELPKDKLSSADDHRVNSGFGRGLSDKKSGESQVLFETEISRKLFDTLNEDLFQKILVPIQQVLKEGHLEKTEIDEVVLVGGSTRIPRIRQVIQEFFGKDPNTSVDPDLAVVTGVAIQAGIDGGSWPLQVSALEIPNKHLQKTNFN
Assay: co-IP

binding: binds
Substance: DDR1
